# Values quoted from earlier work as cited in patent publication US10689673B2, “Bioconversion process for producing nylon-7, nylon-7,7 and polyesters” (INVISTA NORTH AMERICA S.A.R.L., priority 2011, dated 2020).
# At least one structure is not confirmed: it was looked up by name or label, or the drawing left a doubt.
# Test system: PauA pimeloyl-CoA ligase (EC 6.2.1.14)
# Details: substrate of pauA; pimelate = 100%; cited from earlier work
structure (smiles),measurement,value
O=C(O)CCCCCCCC(=O)O [azelate],relative activity,18%
